# Reference: the supplement of paper PMC10849652
# Sequences of proteins named here, by UniProt entry; tags and fusion partners are left off. A change or cut given only in a name is not applied to a line headed by its entry.
# UniProt Q9HAN9, whole entry, looked up: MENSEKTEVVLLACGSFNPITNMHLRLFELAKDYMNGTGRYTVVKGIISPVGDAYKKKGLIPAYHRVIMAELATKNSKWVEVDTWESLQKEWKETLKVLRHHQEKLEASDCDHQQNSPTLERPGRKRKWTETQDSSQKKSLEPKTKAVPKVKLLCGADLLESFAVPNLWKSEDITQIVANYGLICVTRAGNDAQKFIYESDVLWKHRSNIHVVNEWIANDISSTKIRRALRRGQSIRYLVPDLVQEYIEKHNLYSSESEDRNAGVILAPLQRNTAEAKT
# UniProt O00567: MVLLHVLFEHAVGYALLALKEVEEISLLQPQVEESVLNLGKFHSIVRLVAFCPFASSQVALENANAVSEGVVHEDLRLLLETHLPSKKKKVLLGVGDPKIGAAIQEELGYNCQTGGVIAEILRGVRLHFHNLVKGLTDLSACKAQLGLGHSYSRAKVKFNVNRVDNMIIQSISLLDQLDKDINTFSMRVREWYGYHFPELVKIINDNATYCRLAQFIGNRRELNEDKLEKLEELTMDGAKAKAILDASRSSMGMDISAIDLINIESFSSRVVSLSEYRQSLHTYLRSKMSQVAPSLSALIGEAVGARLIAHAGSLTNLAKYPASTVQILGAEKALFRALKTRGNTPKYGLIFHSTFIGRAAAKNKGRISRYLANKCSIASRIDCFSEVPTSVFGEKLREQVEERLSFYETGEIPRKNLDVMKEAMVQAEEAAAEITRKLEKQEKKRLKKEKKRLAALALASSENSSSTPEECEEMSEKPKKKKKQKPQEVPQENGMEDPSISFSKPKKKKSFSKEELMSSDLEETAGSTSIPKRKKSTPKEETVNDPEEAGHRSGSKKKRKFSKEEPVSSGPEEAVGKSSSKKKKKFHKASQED
# UniProt Q9Y5B8, whole entry, looked up: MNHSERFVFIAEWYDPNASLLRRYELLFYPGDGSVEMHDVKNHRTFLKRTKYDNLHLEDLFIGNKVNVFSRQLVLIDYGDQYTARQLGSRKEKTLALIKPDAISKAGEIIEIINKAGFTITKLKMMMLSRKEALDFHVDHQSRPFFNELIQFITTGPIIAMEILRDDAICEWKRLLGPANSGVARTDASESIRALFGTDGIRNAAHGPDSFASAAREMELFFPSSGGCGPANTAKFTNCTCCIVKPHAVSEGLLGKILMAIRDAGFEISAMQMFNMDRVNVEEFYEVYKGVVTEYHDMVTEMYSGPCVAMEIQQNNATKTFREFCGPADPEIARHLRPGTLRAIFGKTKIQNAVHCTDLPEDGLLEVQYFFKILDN
# UniProt Q96P11: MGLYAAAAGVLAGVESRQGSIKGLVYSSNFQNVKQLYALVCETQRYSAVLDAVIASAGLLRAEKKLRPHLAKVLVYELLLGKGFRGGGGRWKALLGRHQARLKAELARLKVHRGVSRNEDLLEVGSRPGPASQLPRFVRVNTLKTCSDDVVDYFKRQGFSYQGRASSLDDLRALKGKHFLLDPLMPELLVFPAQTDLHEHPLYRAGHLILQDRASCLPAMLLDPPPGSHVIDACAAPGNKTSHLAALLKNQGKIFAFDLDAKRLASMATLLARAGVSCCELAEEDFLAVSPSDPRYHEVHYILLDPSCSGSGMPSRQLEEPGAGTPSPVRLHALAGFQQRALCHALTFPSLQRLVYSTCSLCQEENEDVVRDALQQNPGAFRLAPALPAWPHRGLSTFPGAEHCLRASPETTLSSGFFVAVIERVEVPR
# UniProt Q14978: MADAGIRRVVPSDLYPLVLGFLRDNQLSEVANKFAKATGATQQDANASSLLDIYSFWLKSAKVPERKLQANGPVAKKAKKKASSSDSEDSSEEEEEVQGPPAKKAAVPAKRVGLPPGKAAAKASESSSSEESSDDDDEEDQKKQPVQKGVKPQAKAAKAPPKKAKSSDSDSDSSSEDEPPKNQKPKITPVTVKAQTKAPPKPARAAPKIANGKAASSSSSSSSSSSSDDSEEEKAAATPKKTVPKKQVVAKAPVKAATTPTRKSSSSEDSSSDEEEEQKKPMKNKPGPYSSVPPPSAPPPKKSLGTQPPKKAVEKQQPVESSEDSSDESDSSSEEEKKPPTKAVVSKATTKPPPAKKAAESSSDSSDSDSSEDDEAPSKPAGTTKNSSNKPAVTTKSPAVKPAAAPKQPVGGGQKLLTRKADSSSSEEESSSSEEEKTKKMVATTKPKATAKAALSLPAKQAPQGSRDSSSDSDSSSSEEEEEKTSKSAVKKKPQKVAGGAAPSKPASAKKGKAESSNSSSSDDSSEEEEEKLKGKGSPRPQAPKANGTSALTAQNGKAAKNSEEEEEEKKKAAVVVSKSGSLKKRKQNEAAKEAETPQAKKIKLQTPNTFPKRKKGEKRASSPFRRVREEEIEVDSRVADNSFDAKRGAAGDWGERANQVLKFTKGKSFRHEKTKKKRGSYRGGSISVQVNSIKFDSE
# UniProt Q9NZJ9: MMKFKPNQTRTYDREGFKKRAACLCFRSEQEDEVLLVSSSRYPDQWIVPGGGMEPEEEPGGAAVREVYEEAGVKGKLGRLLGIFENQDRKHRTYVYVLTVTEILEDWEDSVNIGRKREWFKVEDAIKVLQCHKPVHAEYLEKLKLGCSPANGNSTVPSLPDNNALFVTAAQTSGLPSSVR
# UniProt Q8TEA1: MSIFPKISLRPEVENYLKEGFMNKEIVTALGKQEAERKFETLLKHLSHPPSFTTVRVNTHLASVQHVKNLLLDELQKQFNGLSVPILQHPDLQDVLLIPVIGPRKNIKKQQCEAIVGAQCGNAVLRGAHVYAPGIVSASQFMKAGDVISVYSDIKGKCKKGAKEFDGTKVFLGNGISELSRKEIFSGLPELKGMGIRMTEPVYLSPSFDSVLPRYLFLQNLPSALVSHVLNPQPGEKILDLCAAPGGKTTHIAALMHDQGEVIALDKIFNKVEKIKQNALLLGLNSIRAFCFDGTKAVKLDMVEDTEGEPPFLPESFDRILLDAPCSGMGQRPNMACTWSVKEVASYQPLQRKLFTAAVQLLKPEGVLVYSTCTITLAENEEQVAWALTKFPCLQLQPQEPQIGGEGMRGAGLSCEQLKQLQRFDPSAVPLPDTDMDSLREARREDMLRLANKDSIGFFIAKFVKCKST
# UniProt Q96DE0: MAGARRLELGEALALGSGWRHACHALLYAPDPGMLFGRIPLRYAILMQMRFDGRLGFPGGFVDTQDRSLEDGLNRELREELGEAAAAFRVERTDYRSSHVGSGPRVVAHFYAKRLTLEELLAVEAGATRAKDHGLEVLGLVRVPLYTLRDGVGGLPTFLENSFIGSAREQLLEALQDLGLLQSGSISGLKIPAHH
# UniProt P49757: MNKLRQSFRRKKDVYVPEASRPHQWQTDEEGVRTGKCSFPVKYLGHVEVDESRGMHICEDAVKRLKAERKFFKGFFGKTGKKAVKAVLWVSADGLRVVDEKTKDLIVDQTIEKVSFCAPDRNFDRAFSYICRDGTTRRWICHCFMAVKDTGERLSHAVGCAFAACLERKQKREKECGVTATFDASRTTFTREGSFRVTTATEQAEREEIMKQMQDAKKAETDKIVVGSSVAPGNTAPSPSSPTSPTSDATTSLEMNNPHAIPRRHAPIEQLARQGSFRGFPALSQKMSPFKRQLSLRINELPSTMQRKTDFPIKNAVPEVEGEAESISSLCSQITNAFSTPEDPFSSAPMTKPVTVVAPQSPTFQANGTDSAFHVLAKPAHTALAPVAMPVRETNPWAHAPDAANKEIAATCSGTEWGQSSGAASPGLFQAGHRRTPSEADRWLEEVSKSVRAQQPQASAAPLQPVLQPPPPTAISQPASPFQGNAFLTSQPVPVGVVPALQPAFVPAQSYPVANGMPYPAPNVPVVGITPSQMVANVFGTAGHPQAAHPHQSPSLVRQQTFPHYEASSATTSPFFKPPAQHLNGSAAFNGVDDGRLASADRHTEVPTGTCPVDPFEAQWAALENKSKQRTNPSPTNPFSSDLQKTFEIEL
# UniProt O75414: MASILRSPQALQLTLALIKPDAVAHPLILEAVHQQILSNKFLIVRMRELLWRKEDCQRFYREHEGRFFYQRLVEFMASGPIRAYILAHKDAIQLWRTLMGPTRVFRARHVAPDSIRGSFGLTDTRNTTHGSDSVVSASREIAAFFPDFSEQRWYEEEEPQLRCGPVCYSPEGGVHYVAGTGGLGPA
# UniProt Q8WUM0: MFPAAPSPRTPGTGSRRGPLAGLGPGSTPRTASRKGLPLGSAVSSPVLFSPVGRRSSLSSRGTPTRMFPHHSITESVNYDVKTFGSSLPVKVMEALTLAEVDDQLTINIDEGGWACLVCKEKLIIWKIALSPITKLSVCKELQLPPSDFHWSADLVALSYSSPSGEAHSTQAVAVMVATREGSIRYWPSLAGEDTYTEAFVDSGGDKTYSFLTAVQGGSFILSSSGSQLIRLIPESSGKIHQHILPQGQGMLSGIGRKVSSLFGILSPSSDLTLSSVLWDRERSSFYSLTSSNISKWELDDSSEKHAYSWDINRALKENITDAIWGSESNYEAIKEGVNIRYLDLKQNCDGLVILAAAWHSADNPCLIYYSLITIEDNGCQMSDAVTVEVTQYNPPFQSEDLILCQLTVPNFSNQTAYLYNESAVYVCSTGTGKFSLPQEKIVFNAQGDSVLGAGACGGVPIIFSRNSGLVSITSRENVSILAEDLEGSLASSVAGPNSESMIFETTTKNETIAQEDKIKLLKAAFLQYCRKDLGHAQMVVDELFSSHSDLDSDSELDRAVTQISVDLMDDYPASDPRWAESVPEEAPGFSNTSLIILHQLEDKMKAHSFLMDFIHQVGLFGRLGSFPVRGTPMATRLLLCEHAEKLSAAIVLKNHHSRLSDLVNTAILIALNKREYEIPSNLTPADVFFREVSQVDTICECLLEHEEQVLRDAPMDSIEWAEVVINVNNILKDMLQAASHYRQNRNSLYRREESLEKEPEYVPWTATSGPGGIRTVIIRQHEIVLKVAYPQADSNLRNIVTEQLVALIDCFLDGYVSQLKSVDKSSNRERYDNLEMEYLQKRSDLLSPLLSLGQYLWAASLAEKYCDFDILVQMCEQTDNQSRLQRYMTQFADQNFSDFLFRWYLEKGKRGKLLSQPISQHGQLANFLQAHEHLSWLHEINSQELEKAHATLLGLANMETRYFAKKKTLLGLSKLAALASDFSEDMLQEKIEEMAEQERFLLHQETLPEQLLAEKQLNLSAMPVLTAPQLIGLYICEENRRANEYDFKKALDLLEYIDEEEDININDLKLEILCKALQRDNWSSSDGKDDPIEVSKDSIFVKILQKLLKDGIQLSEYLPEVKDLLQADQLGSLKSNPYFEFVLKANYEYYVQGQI
# UniProt Q8WVJ2: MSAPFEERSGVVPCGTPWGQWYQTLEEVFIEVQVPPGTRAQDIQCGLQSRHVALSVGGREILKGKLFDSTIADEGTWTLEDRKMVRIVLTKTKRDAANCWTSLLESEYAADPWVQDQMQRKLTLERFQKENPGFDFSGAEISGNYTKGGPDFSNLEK
# UniProt Q96RS6: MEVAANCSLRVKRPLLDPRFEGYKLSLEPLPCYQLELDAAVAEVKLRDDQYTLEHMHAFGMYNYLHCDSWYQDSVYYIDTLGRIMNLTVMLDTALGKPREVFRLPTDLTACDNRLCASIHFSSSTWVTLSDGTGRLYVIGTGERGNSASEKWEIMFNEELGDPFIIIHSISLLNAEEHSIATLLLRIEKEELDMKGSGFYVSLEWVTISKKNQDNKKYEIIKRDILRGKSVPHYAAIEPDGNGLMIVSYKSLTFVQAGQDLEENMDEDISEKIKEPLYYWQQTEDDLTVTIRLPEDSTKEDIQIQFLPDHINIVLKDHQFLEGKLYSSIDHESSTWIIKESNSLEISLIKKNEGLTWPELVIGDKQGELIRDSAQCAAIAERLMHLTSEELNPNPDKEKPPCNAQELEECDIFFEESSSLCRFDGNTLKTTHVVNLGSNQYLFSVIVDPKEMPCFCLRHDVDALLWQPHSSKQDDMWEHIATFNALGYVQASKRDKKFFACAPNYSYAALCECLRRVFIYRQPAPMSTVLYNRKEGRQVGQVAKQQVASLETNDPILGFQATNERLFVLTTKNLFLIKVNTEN
# UniProt Q9ULX3: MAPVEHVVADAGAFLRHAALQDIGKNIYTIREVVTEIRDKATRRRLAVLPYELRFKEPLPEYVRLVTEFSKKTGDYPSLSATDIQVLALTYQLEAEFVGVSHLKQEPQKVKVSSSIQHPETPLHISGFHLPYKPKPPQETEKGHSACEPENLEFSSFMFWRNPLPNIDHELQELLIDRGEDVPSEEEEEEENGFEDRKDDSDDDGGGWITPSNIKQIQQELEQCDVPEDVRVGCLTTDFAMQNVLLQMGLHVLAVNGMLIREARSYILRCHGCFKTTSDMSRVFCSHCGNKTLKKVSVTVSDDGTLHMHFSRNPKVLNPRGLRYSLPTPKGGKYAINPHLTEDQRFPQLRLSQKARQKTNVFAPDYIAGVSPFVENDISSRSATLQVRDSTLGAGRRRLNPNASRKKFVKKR
# This is one part of the list.
# Compound: Cc1ccc(NC(=O)c2ccc(CN3CC[C@H](N(C)C)C3)c(C(F)(F)F)c2)cc1Nc1nccc(-c2cncnc2)n1 [bafetinib]
# Assay: log2 fold change, soluble protein after heating vs DMSO (PISA); higher = thermal stabilisation; K562 lysate, 10 uM; active = over 0.2 and 3.5 SD of the protein, either way, in both replicates (recomputed)
# Method in brief: (§1)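 Quantification was by TMTpro 16plex LC-MS/MS with equalised channel sums, applied to the supernatant after 21,000xg for 90 min. Samples were crude K562 extract at 1 mg/mL protein in PBS pH 7.4 with 1 mM MgCl2, treated with 10 μM compound for 30 min, heated for 3 min across 48°C-58°C, pooled and brought to 0.5% NP-40 at 4°C. Values are log-two fold changes in thermal stability relative to solvent controls, from duplicates.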
row,Target,log2 fold change
1,NMNAT1 (UniProt Q9HAN9),inactive: 0.011
2,NOP56 (UniProt O00567),inactive: -0.015
3,NOP58 (UniProt Q9Y2X3),inactive: -0.032
4,NSMAF (UniProt Q92636),inactive: -0.02
5,NME7 (UniProt Q9Y5B8),inactive: 0.003
6,NSUN5 isoform 2 (UniProt Q96P11),inactive: 0
7,NOLC1 isoform 2 (UniProt Q14978),inactive: 0.026
8,NOP14 (UniProt P78316),inactive: -0.006
9,NSDHL (UniProt Q15738),inactive: 0.011
10,NUDT4 (UniProt Q9NZJ9),inactive: 0.117
11,NSMCE3 (UniProt Q96MG7),inactive: -0.001
12,NSUN6 (UniProt Q8TEA1),inactive: -0.055
13,NUDT16 (UniProt Q96DE0),inactive: -0.018
14,NUMB (UniProt P49757),inactive: -0.069
15,NSFL1C isoform 5 (UniProt Q9UNZ2),inactive: 0.024
16,NUDCD3 (UniProt Q8IVD9),inactive: -0.013
17,NSMCE2 (UniProt Q96MF7),inactive: -0.151
18,NME6 (UniProt O75414),inactive: -0.002
19,NOSIP (UniProt Q9Y314),inactive: -0.003
20,NT5C3A (UniProt Q9H0P0),inactive: 0.011
21,NPM1 (UniProt P06748),inactive: 0.032
22,NUDT7 (UniProt P0C024),inactive: 0.014
23,NUP133 (UniProt Q8WUM0),inactive: -0.074
24,NT5DC2 isoform 2 (UniProt Q9H857),inactive: -0.027
25,NRAS (UniProt P01111),inactive: 0.009
26,NUMA1 (UniProt Q14980),inactive: -0.03
27,NUDCD2 (UniProt Q8WVJ2),inactive: 0.081
28,NUDCD1 (UniProt Q96RS6),inactive: -0.037
29,NOB1 (UniProt Q9ULX3),inactive: -0.041

# Compound: Cc1cccc(CC(=O)N2CCc3c2ccc(-c2cn(C)c4ncnc(N)c24)c3F)n1
# Assay: as above
# Method in brief: as §1
row,Target,log2 fold change
1,NMNAT1 (UniProt Q9HAN9),inactive: 0.01
2,NOP56 (UniProt O00567),inactive: -0.012
3,NOP58 (UniProt Q9Y2X3),inactive: -0.027
4,NSMAF (UniProt Q92636),inactive: -0.001
5,NME7 (UniProt Q9Y5B8),inactive: 0.01
6,NSUN5 isoform 2 (UniProt Q96P11),inactive: 0.021
7,NOLC1 isoform 2 (UniProt Q14978),inactive: 0.017
8,NOP14 (UniProt P78316),inactive: 0.076
9,NSDHL (UniProt Q15738),inactive: -0.006
10,NUDT4 (UniProt Q9NZJ9),active: -0.304
11,NSMCE3 (UniProt Q96MG7),inactive: 0.037
12,NSUN6 (UniProt Q8TEA1),inactive: 0.008
13,NUDT16 (UniProt Q96DE0),inactive: 0
14,NUMB (UniProt P49757),inactive: 0.038
15,NSFL1C isoform 5 (UniProt Q9UNZ2),inactive: -0.022
16,NUDCD3 (UniProt Q8IVD9),inactive: 0.012
17,NSMCE2 (UniProt Q96MF7),inactive: -0.137
18,NME6 (UniProt O75414),inactive: -0.014
19,NOSIP (UniProt Q9Y314),inactive: 0.038
20,NT5C3A (UniProt Q9H0P0),inactive: 0.057
21,NPM1 (UniProt P06748),inactive: -0.051
22,NUDT7 (UniProt P0C024),inactive: 0.095
23,NUP133 (UniProt Q8WUM0),inactive: 0.218
24,NT5DC2 isoform 2 (UniProt Q9H857),inactive: -0.027
25,NRAS (UniProt P01111),inactive: 0.005
26,NUMA1 (UniProt Q14980),inactive: 0.031
27,NUDCD2 (UniProt Q8WVJ2),inactive: -0.036
28,NUDCD1 (UniProt Q96RS6),inactive: 0.028
29,NOB1 (UniProt Q9ULX3),inactive: -0.048
